Experimental data taken from publication PMC2074760.
Results are given in words; binding and its absence hold for the method and conditions named. For part of these data: In cells and extracts the contact can be indirect. Some entries that bind do so weakly or less than the wild type.

Chains of the proteins cited; added tags and fusions are not shown. Residues count along the entry.
UniProt P02769, residues 25-607: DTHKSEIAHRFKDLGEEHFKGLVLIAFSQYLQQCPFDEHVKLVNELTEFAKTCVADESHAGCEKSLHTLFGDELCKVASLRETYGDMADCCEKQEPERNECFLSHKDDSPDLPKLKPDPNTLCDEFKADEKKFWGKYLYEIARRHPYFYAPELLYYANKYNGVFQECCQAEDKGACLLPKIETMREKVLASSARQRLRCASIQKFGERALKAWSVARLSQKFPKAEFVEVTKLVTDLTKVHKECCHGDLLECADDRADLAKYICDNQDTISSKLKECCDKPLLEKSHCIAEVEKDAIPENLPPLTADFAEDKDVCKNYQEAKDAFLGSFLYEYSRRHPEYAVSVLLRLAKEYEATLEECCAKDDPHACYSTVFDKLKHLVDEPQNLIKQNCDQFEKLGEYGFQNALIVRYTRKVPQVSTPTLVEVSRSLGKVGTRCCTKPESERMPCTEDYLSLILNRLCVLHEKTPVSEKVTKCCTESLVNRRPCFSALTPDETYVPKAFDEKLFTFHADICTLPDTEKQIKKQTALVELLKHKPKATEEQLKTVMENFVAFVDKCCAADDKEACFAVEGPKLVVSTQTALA
UniProt P05556: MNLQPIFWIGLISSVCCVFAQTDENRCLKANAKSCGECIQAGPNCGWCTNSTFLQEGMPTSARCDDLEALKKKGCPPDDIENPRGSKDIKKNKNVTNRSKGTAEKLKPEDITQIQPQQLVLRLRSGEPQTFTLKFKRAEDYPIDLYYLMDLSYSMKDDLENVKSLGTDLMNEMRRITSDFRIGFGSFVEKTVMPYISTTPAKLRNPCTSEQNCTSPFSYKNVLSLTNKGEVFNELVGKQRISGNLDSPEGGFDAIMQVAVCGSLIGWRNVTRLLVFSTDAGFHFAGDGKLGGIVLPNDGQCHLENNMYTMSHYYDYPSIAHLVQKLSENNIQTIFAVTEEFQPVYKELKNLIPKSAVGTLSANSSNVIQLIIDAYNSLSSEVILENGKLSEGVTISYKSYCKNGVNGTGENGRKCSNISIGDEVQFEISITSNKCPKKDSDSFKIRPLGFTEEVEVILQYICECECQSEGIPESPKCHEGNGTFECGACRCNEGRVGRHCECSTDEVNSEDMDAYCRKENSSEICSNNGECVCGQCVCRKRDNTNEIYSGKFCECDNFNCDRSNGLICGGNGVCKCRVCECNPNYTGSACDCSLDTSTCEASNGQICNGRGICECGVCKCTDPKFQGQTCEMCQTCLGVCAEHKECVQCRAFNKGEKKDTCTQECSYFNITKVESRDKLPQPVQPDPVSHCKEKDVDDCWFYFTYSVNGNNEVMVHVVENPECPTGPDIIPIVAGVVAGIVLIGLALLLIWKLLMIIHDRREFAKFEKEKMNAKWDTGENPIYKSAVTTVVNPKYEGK
UniProt P16144, residues 28-1822: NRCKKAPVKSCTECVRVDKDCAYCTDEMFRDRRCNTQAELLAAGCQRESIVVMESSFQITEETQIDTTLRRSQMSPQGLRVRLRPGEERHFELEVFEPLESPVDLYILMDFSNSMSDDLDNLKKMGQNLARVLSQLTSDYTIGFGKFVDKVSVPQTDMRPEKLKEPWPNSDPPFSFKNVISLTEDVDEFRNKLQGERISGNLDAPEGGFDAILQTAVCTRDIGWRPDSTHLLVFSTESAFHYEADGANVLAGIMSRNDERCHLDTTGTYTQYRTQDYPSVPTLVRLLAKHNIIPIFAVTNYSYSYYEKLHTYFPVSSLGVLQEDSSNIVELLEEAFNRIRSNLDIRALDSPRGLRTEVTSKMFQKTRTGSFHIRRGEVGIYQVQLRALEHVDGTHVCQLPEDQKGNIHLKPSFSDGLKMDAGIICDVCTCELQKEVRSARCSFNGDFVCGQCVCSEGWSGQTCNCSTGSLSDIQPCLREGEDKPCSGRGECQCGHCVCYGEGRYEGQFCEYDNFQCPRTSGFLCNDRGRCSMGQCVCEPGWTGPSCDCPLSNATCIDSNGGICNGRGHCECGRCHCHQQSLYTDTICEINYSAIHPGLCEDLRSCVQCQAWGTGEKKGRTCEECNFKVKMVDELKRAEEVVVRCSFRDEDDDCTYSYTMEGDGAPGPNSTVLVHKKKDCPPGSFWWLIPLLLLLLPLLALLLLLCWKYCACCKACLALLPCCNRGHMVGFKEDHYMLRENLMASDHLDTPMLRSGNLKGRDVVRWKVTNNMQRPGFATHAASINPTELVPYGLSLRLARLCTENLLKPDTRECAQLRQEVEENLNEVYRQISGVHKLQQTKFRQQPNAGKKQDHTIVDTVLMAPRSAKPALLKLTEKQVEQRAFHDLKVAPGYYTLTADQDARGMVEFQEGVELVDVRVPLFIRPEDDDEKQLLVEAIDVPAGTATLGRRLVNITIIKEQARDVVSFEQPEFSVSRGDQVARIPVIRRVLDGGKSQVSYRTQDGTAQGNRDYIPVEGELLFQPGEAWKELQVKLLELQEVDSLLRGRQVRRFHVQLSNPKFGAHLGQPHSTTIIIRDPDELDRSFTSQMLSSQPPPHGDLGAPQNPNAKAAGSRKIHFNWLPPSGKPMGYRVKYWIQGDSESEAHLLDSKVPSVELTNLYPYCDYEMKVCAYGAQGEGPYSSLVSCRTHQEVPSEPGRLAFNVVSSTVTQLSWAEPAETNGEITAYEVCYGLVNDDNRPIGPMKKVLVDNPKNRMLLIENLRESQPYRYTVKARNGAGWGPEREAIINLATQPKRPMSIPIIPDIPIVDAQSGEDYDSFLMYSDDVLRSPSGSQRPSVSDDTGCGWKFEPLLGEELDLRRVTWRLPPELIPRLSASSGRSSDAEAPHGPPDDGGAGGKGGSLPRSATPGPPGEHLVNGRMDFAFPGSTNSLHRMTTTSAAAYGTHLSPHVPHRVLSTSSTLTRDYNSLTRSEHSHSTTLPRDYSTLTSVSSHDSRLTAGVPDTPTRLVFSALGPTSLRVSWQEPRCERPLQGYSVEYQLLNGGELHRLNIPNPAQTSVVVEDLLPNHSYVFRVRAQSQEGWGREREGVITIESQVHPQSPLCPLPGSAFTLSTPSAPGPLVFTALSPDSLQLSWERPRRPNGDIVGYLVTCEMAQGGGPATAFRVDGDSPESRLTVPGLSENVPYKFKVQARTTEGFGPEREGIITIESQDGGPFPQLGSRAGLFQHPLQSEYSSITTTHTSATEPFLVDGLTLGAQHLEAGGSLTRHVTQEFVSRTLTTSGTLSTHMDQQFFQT

Legend:
[1] = target: bovine serum albumin (bovine) (UniProt P02769); experiment: condition: up to 5 x 10^5 c.p.m. of labelled ECD (axis of Figure 5); radioligand binding; 125I-labelled ECD in dilutions added to wells of 96-well plates adsorbed with laminin, fibronectin, BSA or MAb MGR2 at 10 pg per well (so in the source); both purified
[2] = target: beta 1 integrin subunit, endogenous (human (endogenous in MDA MB453)) (UniProt P05556); experiment: co-IP; MDA MB453 cells treated or not with laminin (50 pg ml-1 as printed) for 5 min, lysed in the absence of ionic detergent; 2 mg lysate immunoprecipitated with MAb 3E1 (beta 4) or MAR4 (beta 1); blot with MAb c-neu Ab3; filters reprobed with anti-beta 1 or anti-beta 4 antibodies
[3] = target: beta 4 integrin subunit, endogenous (human (endogenous in MDA MB453)) (UniProt P16144); experiment: as above

With “human c-erbB-2 receptor extracellular domain (ECD), recombinant, radiolabelled (from UniProt P04626 23-622) (domain or fragment)” the binding [1] was “no binding”.

For “p185HER2 oncoprotein (c-erbB-2 product), endogenous in breast carcinoma cells (from UniProt P04626 23-1255) (receptor)”, the binding [2] was “no binding” and the binding [3] was “binds”.
